Experimental data from patent publication US11602578B2, “Crosslinkable polypeptide and hyaluronic acid coatings” (Université de Strasbourg, priority 2017, dated 2023).
Some results were stated once for a whole list of compounds, not compound by compound.

Test system: S. aureus
Experiment: PAR in solution: S. aureus growth and minimal inhibitory concentration in MHB medium
Assay type: cell-based, Staphylococcus aureus
Conditions: 0.01 mg·mL^−1, 24 h at 37° C. in MHB
Description: PAR with 10, 30, 100 or 200 arginine residues per chain were tested. Each PAR was incubated 24 h at 37° C. in 300 μL of MHB medium with S. aureus (A620=0.001). Pathogen growth of 0% corresponds to medium with antibiotics (and without PAR) and 100% to medium without PAR. Each value corresponds to the mean value of 3 individual experiments (3 samples per experiment and condition) and error bars correspond to standard deviations. For each concentration, the first column represents the normalized pathogen growth of S. aureus for PAR10, the 2nd column for PAR30, the third column for PAR100 and the fourth for PAR200.
In the following the inventors of the present invention wanted to further elucidate the underlying mechanism that confer to the coatings of the invention the strong inhibitory property on the surface and in the supernatant. As an example the (PAR30/HA)24 coating was further investigated. Accordingly, the minimal inhibitory concentration (MIC) of PAR in solution was determined using bacterial assay as described in Experimental Section. […] Finally for PAR at concentrations of 0.01 mg·mL^−1, inhibition of 100% was shown only for PAR30. Longer or shorter PAR chains (PAR10, PAR100 or PAR200) inhibits only partially (less than 40%) S. aureus growth. […] This reasoning is valid when PAR concentration values are expressed in mass (mg·mL^−1) thus it is related to the number of arginine monomers. However when the graph is plotted with concentrations in μM (and thus proportional in number of chains), which means that concentration is related to number of chains, different interpretation can be made. […] Moreover the MIC100 values obtained for PAR30, PAR100 or PAR200 ranges at very low concentrations (between 1 and 2 μM) which is remarkable when compared to well-known antimicrobial peptides (for example 30 μM for cateslytin with S. aureus, see Adv. Funct. Mater. 2013, 23, 4801-4809). PAR is thus a powerful candidate to fight against S. aureus.

poly-L-arginine [PAR10]
inhibition of S. aureus growth by PAR in solution: less than 40%

poly-L-arginine [PAR100]
inhibition of S. aureus growth by PAR in solution: less than 40%

poly-L-arginine [PAR200]
inhibition of S. aureus growth by PAR in solution: less than 40%
